The experiment addresses T1, RECEPTOR-LIKE KINASE 7 ectodomain (RLK7^ECD) (Arabidopsis thaliana) (UniProt F4I2N7).
T1 sequence: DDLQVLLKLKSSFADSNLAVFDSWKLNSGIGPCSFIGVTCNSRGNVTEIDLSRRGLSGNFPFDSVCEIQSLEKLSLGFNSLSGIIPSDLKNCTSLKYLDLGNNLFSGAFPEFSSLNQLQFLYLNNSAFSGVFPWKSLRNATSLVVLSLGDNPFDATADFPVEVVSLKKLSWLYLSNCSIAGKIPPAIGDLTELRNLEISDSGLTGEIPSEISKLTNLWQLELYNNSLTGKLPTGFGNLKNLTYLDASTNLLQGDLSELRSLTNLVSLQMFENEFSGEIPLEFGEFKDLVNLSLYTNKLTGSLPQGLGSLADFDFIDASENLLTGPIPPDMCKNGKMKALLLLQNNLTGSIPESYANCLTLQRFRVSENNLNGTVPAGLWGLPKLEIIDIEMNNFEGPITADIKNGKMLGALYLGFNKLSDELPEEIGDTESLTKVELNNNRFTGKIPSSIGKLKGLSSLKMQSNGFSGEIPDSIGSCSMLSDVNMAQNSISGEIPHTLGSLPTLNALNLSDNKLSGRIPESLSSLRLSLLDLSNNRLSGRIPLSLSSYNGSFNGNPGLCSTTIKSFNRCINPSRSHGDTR
Briefly: condition: 300 μM peptide injected into 30 μM receptor; ITC; 300 μM peptide in the syringe injected into 30 μM receptor ectodomain in the cell; 25 °C; 20 mM citrate pH 5.0, 150 mM NaCl (SEC buffer); N fitted to 1; duplicates; both purified.

Here are results for 1 molecule from PMC11649690, “CEP signaling coordinates plant immunity with nitrogen status” (Nature Communications, 2024).

Results are given in words; binding and its absence hold for the method and conditions named.

B1: C-… ENCODED PEPTIDE 1 (CEP1) (peptide, UniProt Q8L8Y3 72-86, looked up)
peptide: DFRPTNPGNSPGVGH
notes: CEP1 peptide, the mature CEP domain cut from the CEP1 precursor, Arabidopsis thaliana; source: synthetic peptide (Pepmic, at least 90% purity)
B1: the binding result is on record as “no binding”.
